PubChem BioAssay AID1508597 | Cure First | 2020
Test: 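Knock-downs altering ovarian cancer cell survival with or without PARP inhibitor rucaparib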 (primary screen). System: human ovarian carcinoma lines grown from tumours: OCI-P5x (papillary serous) and OCI-C5x (clear cell). Reagents: siRNA pool against human genes, 1.25 pmol siRNA per well. Timing: 72 h or 96 h, depending on the cell culture. Challenge: rucaparib 20 µM (about IC30) or vehicle, present until read-out. Measured: 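Luminescent ATP-based viability assay read 72 or 96 h after transfection, depending on culture, given as normalised percent viability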. Direction: viability, normalised: higher = more viable cells remaining. Active means: 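a well counts as a hit if its normalised viability is under 80 percent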. Meaning of the calls: active = viability under 80%; inactive = viability 80% or more.
Shown is one part, drawn at random, of about 2,100 reagents tested. 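Calls flag viability under 80% in either arm, not effects specific to rucaparib; the reference for percent is not stated.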 Entries without a mark were called inactive. Not stated in the record: the 100% reference.

THOC1, rucaparib or vehicle Rucaparib, cell line OCI-C5x (clear cell), technical replicate 1 showed viability, normalised (%) = 38.1 (active).
With THOC1, rucaparib or vehicle Rucaparib, cell line OCI-C5x (clear cell), technical replicate 2, the entry reads viability, normalised (%) = 54.3 (active).
THOC1, rucaparib or vehicle Rucaparib, cell line OCI-C5x (clear cell), technical replicate 3 showed viability, normalised (%) = 49.3 (active).
THOC1, rucaparib or vehicle Rucaparib, cell line OCI-P5x (serous), technical replicate 1 gave viability, normalised (%) = 67.5 (active).
THOC1, rucaparib or vehicle Rucaparib, cell line OCI-P5x (serous), technical replicate 2 gave viability, normalised (%) = 71 (active).
THOC1, rucaparib or vehicle Rucaparib, cell line OCI-P5x (serous), technical replicate 3 showed viability, normalised (%) = 63.4 (active).
THOC1, rucaparib or vehicle Vehicle, cell line OCI-C5x (clear cell), technical replicate 1 showed viability, normalised (%) = 43.9 (active).
THOC1, rucaparib or vehicle Vehicle, cell line OCI-C5x (clear cell), technical replicate 2 scored viability, normalised (%) = 68 (active).
With THOC1, rucaparib or vehicle Vehicle, cell line OCI-C5x (clear cell), technical replicate 3, the values are viability, normalised (%) = 56.8 (active).
THOC1, rucaparib or vehicle Vehicle, cell line OCI-P5x (serous), technical replicate 1 showed viability, normalised (%) = 71.8 (active).
For THOC1, rucaparib or vehicle Vehicle, cell line OCI-P5x (serous), technical replicate 2, the entry reads viability, normalised (%) = 66.7 (active).
THOC1, rucaparib or vehicle Vehicle, cell line OCI-P5x (serous), technical replicate 3 gave viability, normalised (%) = 66.5 (active).
For MED29, rucaparib or vehicle Rucaparib, cell line OCI-C5x (clear cell), technical replicate 1 the deposit lists viability, normalised (%) = 41.6 (active).
MED29, rucaparib or vehicle Rucaparib, cell line OCI-C5x (clear cell), technical replicate 2 gave viability, normalised (%) = 44.3 (active).
MED29, rucaparib or vehicle Rucaparib, cell line OCI-C5x (clear cell), technical replicate 3 scored viability, normalised (%) = 40.7 (active).
For MED29, rucaparib or vehicle Rucaparib, cell line OCI-P5x (serous), technical replicate 1 the deposit lists viability, normalised (%) = 43.4 (active).
MED29, rucaparib or vehicle Rucaparib, cell line OCI-P5x (serous), technical replicate 2 showed viability, normalised (%) = 42.8 (active).
For MED29, rucaparib or vehicle Rucaparib, cell line OCI-P5x (serous), technical replicate 3, the values are viability, normalised (%) = 49.4 (active).
MED29, rucaparib or vehicle Vehicle, cell line OCI-C5x (clear cell), technical replicate 1 gave viability, normalised (%) = 30.4 (active).
For MED29, rucaparib or vehicle Vehicle, cell line OCI-C5x (clear cell), technical replicate 2, the values are viability, normalised (%) = 32.7 (active).
For MED29, rucaparib or vehicle Vehicle, cell line OCI-C5x (clear cell), technical replicate 3 the deposit lists viability, normalised (%) = 46.5 (active).
MED29, rucaparib or vehicle Vehicle, cell line OCI-P5x (serous), technical replicate 1 gave viability, normalised (%) = 65.5 (active).
For MED29, rucaparib or vehicle Vehicle, cell line OCI-P5x (serous), technical replicate 2, the values are viability, normalised (%) = 51.9 (active).
MED29, rucaparib or vehicle Vehicle, cell line OCI-P5x (serous), technical replicate 3 gave viability, normalised (%) = 65.6 (active).
